In the supplement of paper PMC10849652:
The list shows a part of the results.

Sequences of proteins named here, by UniProt entry; tags and fusion partners are left off. A change or cut given only in a name is not applied to a line headed by its entry.
UniProt Q14690: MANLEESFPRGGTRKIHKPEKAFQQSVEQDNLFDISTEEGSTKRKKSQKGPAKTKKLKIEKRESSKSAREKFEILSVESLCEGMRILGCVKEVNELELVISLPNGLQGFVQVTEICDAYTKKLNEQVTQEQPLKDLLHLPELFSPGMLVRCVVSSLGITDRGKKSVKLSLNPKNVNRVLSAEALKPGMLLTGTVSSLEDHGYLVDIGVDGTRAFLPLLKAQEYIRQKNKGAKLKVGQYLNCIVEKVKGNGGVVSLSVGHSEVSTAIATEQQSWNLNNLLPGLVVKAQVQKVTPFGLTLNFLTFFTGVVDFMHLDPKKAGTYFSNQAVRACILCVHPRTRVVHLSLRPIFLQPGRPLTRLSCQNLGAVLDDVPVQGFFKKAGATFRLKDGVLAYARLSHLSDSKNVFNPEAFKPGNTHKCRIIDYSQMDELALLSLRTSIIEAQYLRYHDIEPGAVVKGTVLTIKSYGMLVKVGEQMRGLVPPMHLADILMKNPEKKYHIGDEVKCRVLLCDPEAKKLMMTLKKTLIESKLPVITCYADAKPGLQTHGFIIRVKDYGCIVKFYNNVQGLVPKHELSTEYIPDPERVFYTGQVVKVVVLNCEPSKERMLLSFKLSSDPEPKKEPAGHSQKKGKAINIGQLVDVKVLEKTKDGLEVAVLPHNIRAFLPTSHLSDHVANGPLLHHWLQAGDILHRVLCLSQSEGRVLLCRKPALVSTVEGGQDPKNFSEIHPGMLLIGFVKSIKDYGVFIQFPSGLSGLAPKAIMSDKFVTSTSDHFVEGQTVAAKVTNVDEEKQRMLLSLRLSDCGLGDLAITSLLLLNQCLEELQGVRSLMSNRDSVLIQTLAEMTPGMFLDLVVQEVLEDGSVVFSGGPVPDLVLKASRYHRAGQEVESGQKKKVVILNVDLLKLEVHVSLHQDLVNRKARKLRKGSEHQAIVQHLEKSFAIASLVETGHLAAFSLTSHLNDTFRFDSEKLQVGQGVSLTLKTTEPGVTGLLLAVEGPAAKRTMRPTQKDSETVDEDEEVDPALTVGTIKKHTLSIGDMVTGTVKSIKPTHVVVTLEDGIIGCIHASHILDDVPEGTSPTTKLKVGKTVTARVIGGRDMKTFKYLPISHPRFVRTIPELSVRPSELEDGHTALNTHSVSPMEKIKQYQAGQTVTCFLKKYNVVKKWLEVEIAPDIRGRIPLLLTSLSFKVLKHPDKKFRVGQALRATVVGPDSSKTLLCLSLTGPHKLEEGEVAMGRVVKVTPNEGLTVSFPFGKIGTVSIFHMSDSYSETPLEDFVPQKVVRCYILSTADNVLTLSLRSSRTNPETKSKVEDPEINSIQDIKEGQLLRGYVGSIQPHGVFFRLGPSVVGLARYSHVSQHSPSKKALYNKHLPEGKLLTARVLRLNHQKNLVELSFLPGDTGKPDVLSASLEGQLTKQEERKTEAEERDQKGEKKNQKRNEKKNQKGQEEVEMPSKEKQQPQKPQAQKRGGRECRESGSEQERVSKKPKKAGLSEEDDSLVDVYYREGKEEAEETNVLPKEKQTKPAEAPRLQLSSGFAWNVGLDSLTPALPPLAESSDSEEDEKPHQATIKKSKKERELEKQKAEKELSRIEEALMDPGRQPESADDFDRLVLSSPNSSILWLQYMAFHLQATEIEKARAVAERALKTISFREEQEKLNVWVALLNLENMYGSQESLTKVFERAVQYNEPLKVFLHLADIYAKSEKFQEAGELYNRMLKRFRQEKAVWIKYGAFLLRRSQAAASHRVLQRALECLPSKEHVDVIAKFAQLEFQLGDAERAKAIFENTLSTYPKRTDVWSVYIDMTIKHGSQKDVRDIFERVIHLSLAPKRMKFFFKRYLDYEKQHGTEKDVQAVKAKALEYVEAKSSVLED
UniProt Q8WUM4: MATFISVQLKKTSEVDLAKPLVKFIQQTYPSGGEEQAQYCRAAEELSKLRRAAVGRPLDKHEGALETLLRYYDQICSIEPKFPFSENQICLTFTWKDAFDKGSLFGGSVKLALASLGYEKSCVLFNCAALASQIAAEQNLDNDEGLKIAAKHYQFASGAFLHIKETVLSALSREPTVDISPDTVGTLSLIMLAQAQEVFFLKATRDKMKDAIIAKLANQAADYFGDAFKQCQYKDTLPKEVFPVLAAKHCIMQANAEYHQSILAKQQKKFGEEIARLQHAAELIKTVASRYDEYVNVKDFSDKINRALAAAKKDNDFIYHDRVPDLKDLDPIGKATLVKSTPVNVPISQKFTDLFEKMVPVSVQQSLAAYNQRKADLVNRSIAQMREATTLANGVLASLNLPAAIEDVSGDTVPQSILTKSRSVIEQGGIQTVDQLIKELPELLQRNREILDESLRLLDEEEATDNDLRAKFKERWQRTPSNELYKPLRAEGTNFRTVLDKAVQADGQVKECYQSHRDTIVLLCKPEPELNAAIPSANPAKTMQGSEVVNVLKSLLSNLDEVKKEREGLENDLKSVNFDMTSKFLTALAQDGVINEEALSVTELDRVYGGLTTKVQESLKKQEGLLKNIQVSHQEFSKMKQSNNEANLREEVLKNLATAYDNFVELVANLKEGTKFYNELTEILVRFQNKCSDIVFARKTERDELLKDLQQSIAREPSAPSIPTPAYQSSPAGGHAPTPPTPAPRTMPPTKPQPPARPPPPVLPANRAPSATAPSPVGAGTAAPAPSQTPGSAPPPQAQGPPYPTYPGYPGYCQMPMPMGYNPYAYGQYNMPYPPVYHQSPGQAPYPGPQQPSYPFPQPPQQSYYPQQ
UniProt Q99447: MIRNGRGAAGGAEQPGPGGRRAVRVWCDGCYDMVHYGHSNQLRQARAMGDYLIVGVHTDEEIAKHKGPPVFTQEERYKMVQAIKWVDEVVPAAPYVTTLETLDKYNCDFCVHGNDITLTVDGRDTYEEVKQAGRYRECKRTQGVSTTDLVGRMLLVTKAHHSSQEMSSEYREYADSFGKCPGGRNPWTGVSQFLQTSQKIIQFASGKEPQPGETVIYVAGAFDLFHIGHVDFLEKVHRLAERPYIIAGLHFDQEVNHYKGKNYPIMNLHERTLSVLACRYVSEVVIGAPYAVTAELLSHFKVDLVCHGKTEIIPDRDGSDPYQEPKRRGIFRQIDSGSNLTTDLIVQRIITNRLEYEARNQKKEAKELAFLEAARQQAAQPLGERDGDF
UniProt Q9NTI5: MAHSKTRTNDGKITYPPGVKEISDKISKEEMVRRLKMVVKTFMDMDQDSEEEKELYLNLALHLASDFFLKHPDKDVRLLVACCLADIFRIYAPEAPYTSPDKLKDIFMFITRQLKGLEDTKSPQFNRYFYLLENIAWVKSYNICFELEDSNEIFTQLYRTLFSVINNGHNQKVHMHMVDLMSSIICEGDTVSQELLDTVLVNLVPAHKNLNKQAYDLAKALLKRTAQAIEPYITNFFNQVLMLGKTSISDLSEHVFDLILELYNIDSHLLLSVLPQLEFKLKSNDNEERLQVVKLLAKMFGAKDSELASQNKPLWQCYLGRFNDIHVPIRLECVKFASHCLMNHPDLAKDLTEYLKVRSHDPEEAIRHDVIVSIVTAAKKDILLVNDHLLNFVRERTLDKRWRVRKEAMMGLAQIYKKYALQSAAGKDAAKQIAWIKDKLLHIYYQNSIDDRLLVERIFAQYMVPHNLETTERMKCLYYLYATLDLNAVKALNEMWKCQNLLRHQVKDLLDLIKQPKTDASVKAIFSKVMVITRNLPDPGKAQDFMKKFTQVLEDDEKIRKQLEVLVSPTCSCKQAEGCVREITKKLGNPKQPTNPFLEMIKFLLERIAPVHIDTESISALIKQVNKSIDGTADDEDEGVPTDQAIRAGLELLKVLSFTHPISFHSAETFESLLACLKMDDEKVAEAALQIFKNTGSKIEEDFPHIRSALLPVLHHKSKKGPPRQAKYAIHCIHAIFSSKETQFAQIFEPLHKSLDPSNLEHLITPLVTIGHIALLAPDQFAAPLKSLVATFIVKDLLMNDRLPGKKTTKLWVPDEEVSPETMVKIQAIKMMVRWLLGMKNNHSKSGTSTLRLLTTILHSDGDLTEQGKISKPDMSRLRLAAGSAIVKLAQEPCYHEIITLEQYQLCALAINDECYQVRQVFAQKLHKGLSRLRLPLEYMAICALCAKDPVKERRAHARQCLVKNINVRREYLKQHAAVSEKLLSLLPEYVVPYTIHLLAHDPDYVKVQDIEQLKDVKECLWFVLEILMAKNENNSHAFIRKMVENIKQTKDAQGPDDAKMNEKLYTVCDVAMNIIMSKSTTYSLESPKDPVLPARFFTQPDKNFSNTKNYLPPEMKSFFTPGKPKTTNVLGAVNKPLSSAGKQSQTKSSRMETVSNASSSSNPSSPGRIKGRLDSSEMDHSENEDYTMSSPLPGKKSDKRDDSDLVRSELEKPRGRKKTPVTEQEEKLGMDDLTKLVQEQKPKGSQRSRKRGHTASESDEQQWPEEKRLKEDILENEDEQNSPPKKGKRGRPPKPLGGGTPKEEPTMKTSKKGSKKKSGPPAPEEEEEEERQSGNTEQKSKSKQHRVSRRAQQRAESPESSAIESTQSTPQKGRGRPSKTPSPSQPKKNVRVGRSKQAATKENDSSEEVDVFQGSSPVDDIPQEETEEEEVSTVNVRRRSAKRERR
UniProt O14737: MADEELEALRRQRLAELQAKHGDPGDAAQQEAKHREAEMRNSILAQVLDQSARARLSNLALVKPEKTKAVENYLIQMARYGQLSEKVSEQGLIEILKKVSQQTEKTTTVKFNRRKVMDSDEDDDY
UniProt Q96GD0: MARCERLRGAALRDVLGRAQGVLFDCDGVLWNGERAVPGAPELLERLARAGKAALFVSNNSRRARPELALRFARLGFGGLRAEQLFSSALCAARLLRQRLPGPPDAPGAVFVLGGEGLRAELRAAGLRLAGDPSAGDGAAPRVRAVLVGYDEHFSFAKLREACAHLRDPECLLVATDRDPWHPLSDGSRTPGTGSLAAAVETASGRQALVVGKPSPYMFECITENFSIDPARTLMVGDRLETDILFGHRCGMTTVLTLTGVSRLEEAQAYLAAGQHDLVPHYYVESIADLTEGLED
UniProt P28328: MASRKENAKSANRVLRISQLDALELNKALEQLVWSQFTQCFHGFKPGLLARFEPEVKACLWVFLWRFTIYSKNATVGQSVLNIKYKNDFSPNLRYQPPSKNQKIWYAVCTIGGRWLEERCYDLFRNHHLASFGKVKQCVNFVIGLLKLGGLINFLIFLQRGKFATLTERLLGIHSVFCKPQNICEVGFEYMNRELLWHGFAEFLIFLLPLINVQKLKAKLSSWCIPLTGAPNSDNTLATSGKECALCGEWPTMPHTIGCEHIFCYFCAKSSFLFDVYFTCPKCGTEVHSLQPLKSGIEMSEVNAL
UniProt Q15004: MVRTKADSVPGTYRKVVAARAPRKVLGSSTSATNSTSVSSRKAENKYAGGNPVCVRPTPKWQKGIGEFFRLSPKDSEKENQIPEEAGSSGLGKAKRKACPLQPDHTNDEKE
UniProt P05165: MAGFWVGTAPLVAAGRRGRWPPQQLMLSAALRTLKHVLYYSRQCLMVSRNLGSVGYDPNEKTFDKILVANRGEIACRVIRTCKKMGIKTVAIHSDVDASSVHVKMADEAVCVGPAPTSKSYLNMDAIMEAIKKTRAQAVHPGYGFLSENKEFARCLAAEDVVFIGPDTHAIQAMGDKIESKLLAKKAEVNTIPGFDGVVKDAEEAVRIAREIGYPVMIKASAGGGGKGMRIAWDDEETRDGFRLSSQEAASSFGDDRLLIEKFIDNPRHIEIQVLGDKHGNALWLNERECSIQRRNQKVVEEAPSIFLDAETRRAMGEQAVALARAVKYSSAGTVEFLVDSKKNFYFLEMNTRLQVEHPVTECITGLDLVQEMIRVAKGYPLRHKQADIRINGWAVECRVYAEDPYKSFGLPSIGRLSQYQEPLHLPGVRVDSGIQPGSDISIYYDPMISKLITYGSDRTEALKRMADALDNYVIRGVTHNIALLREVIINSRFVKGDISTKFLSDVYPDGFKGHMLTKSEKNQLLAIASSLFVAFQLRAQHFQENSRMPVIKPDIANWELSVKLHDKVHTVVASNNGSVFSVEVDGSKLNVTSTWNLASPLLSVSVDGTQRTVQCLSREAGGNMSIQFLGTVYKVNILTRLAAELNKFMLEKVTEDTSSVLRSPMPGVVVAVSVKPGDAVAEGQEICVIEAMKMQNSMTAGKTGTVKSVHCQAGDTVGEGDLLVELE
UniProt O00151: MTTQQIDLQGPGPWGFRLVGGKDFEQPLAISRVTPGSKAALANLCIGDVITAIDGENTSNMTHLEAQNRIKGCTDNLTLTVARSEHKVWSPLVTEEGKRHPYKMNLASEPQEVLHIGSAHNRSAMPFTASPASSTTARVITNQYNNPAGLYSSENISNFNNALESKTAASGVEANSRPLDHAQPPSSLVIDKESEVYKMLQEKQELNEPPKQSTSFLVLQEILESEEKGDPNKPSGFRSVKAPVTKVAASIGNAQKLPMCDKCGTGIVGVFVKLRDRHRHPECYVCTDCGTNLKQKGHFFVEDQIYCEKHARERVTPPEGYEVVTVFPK

Columns and labels:
Assay in all cases: log2 fold change, soluble protein after heating vs DMSO (PISA); higher = thermal stabilisation; K562 lysate, 10 uM; active = over 0.2 and 3.5 SD of the protein, either way, in both replicates (recomputed)
erlotinib = compound: C#Cc1cccc(Nc2ncnc3cc(OCCOC)c(OCCOC)cc23)c1 [erlotinib]
Summary of the method: (§1)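 K562 pellets were dounce-homogenised in PBS pH 7.4 with 1 mM MgCl2, and the crude extract at 1 mg/mL protein was treated with 10 μM compound for 30 min. Aliquots were heated for 3 min across 48°C-58°C, pooled, and brought to 0.5% NP-40 at 4°C; soluble protein was the supernatant after 21,000xg for 90 min. Soluble protein was quantified by TMTpro 16plex LC-MS/MS with channel sums equalised, and reported as log2 fold change in thermal stability against DMSO controls, with values from duplicates.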

[1] = compound: C/C(=N\NC(=O)C1=CC(=CC=C1)S(=O)(=O)N2CCOCC2)/C3=C(C=CC(=C3)Cl)O
Summary of the method: as §1

[2] = compound: C1=CC(=CC=C1C2=NC3=C(N2)C=C(C=C3)C(=O)N)OC4=CC=C(C=C4)Cl
Summary of the method: as §1

[3] = compound: C1=CC2=C(C=CC(=C2)/C=C\3/C(=O)NC(=NCC4=CC=CS4)S3)N=C1
Summary of the method: as §1

[4] = compound: C1=CC2=NC=CN=C2C=C1/C=C/3\C(=O)NC(=O)S3
Summary of the method: as §1

[5] = compound: C1=CC=C(C=C1)C2=NC(=C(N2)C3=CC=NC=C3)C4=CC(=C(C=C4)Cl)O
Summary of the method: as §1

[6] = compound: C1=CC=C2C(=C1)C3=NNC4=CC=CC(=C43)C2=O
Summary of the method: as §1

[7] = compound: C1CCN(C1)C(=O)NC2=CC=CC(=C2)NC3=NC=C(C(=N3)NCCC4=CN=CN4)Br
Summary of the method: as §1

[8] = compound: C1CN(CCC1(CC2=CC=C(C=C2)Cl)N)C3=NC=NC4=C3C=CN4
Summary of the method: as §1

IRAK-1-4 Inhibitor I = compound: C1COCCN1CCN2C3=CC=CC=C3N=C2NC(=O)C4=CC(=CC=C4)[N+](=O)[O-] [IRAK-1-4 Inhibitor I]
Summary of the method: as §1

ibrutinib = compound: C=CC(=O)N1CCC[C@@H](n2nc(-c3ccc(Oc4ccccc4)cc3)c3c(N)ncnc32)C1 [ibrutinib]
Summary of the method: as §1

[9] = compound: CC(=O)c1cnc2ccc(-c3cc(Cl)c(O)c(Cl)c3)nc2c1N[C@H]1CC[C@H](CN(C)C)CC1
Summary of the method: as §1

ralimetinib = compound: CC(C)(C)Cn1c(N)nc2ccc(-c3[nH]c(C(C)(C)C)nc3-c3ccc(F)cc3)nc21 [ralimetinib]
Summary of the method: as §1

[10] = compound: CC(C)(O)CC(=O)NCCn1ccc2ncnc(Nc3ccc(Oc4cccc(C(F)(F)F)c4)c(Cl)c3)c21
Summary of the method: as §1

[11] = compound: CC(C)C1=C2N=C(C=C(N2N=C1)NCC3=CC=CC=C3)NCCCCCCN
Summary of the method: as §1

[12] = compound: CC1=C(C(CC(=O)N1)C2=CC=C(C=C2)C(F)(F)F)C(=O)NC3=C(C=C4C(=C3)C=NN4)F
Summary of the method: as §1

[13] = compound: CC1=C(C2=C(C=C1)C(=O)C3=CC=CC=C3N2CCCN)C
Summary of the method: as §1

[14] = compound: CC1=C(C=C(C=C1)NC(=O)C2=CC(=CC=C2)C(C)(C)C#N)NC3=CC4=C(C=C3)N=CN(C4=O)C
Summary of the method: as §1

[15] = compound: CC1=C(C=C(C=C1)NC(=O)C2=CC(=CC=C2)N(C)C)NC(=O)C3=CC=C(C=C3)O
Summary of the method: as §1

[16] = compound: CC1=CC=C(C=C1)SC2=C3C=C(SC3=CN=C2)C(=O)N
Summary of the method: as §1

| Target | log2 fold change (erlotinib) | log2 fold change [1] | log2 fold change [2] | log2 fold change [3] | log2 fold change [4] | log2 fold change [5] | log2 fold change [6] | log2 fold change [7] | log2 fold change [8] | log2 fold change (IRAK-1-4 Inhibitor I) | log2 fold change (ibrutinib) | log2 fold change [9] | log2 fold change (ralimetinib) | log2 fold change [10] | log2 fold change [11] | log2 fold change [12] | log2 fold change [13] | log2 fold change [14] | log2 fold change [15] | log2 fold change [16] |
| --- | --- | --- | --- | --- | --- | --- | --- | --- | --- | --- | --- | --- | --- | --- | --- | --- | --- | --- | --- | --- |
| PDCD11 (UniProt Q14690) | inactive: 0.045 | inactive: 0.195 | inactive: 0.011 | inactive: 0.04 | inactive: -0.054 | inactive: -0.019 | inactive: -0.051 | inactive: -0.011 | inactive: 0.016 | inactive: -0.016 | inactive: 0.035 | inactive: -0.012 | inactive: 0.02 | inactive: -0.055 | inactive: -0.022 | inactive: 0.013 | inactive: -0.006 | inactive: -0.009 | inactive: 0.06 | inactive: 0.008 |
| PDCD6IP (UniProt Q8WUM4) | inactive: -0.016 | inactive: 0.021 | inactive: -0.036 | inactive: 0 | inactive: 0.108 | inactive: 0.03 | inactive: 0.013 | inactive: 0.07 | inactive: 0.012 | inactive: -0.094 | inactive: -0.056 | inactive: 0.042 | inactive: -0.066 | inactive: -0.004 | inactive: 0.078 | inactive: 0.009 | inactive: 0.004 | inactive: -0.037 | inactive: 0.02 | inactive: -0.03 |
| PEX5 isoform 4 (UniProt P50542) | inactive: 0.053 | inactive: 0.042 | inactive: -0.199 | inactive: -0.041 | inactive: 0.058 | inactive: -0.02 | inactive: -0.045 | inactive: -0.13 | inactive: 0.081 | inactive: -0.014 | inactive: 0.049 | inactive: 0.056 | inactive: 0.018 | inactive: 0.006 | inactive: -0.04 | inactive: -0.028 | inactive: -0.001 | inactive: 0.02 | inactive: 0.045 | inactive: 0.018 |
| PCYT2 isoform 3 (UniProt Q99447) | inactive: -0.035 | inactive: 0.031 | inactive: 0.03 | inactive: 0.008 | inactive: 0.051 | inactive: -0.161 | inactive: -0.024 | inactive: -0.021 | inactive: 0.013 | inactive: -0.007 | inactive: -0.058 | inactive: 0.003 | inactive: 0.046 | inactive: -0.007 | inactive: 0.006 | inactive: 0.009 | inactive: -0.016 | inactive: 0.007 | inactive: 0.009 | inactive: 0.029 |
| PCBP2 (UniProt F8W0G4) | inactive: -0.117 | inactive: -0.36 | inactive: -0.007 | inactive: -0.102 | inactive: 0.022 | inactive: 0.005 | inactive: -0.236 | inactive: -0.241 | inactive: 0.079 | inactive: 0.093 | inactive: -0.27 |  | inactive: -0.061 | inactive: -0.282 | inactive: -0.175 | inactive: -0.045 | inactive: -0.083 |  | inactive: 0.049 |  |
| PCNT (UniProt O95613) | inactive: 0.004 | inactive: 0.019 | inactive: 0.002 | inactive: 0.001 | inactive: -0.002 | inactive: -0.033 | inactive: -0.025 | inactive: 0.017 | inactive: -0.011 | inactive: 0.034 | inactive: -0.014 | inactive: -0.014 | inactive: 0.018 | inactive: -0.039 | inactive: 0.027 | inactive: -0.003 | inactive: -0.014 | inactive: 0.014 | inactive: 0.021 | inactive: -0.046 |
| PFKFB4 (UniProt Q16877) | inactive: 0.02 | inactive: 0.044 | inactive: 0.041 | inactive: -0.024 | inactive: -0.031 | inactive: 0.096 | inactive: -0.083 | inactive: -0.003 | inactive: 0.067 | inactive: -0.023 | inactive: 0.022 | inactive: -0.005 | inactive: 0.1 | inactive: -0.032 | inactive: -0.004 |  | inactive: -0.008 | inactive: -0.003 | inactive: 0.093 | inactive: 0.011 |
| PDS5B (UniProt Q9NTI5) | inactive: 0.031 | inactive: 0.014 | inactive: -0.019 | inactive: 0.049 | inactive: 0.001 | inactive: 0.016 | inactive: -0.005 | inactive: 0.011 | inactive: -0.018 | inactive: -0.034 | inactive: 0.015 | inactive: 0.02 | inactive: 0.023 | inactive: -0.049 | inactive: 0.013 | inactive: -0.003 | inactive: 0.006 | inactive: -0.025 | inactive: 0.001 | inactive: 0.014 |
| PDCD5 (UniProt O14737) | inactive: -0.038 | inactive: 0.017 | inactive: -0.014 | inactive: -0.034 | inactive: 0 | inactive: 0.005 | inactive: 0.017 | inactive: -0.004 | inactive: 0.007 | inactive: -0.009 | inactive: 0.069 | inactive: 0.021 | inactive: -0.035 | inactive: -0.003 | inactive: -0.014 | inactive: -0.032 | inactive: 0.038 | inactive: -0.032 | inactive: -0.03 | inactive: -0.002 |
| PDE8A (UniProt O60658) | inactive: 0.155 | inactive: -0.201 | inactive: 0.042 | inactive: 0.05 | inactive: -0.069 |  | inactive: 0.263 |  |  |  | inactive: 0.183 |  |  |  | inactive: -0.274 |  |  | inactive: 0.035 |  |  |
| PDXP (UniProt Q96GD0) | inactive: -0.014 | inactive: 0.008 | inactive: 0.002 | inactive: -0.013 | inactive: 0 | inactive: 0.001 | inactive: 0.011 | inactive: -0.006 | inactive: 0.024 | inactive: 0.037 | inactive: 0.01 | inactive: -0.005 | inactive: 0.006 | inactive: -0.006 | inactive: -0.024 | inactive: -0.047 | inactive: 0.01 | inactive: 0.04 | inactive: -0.04 | inactive: -0.008 |
| PDXDC1 (UniProt Q6P996) | inactive: -0.012 | inactive: 0.008 | inactive: -0.095 | inactive: 0.034 | inactive: 0.013 | inactive: -0.005 | inactive: 0.024 | inactive: -0.011 | inactive: -0.024 | inactive: -0.006 | inactive: -0.006 | inactive: 0.051 | inactive: 0.071 | inactive: -0.017 | inactive: 0.001 | inactive: 0.014 | inactive: -0.024 | inactive: -0.019 | inactive: 0.024 | inactive: 0.022 |
| PEX2 (UniProt P28328) | inactive: 0.106 | active: -0.731 | inactive: 0.068 | inactive: 0.048 | inactive: -0.128 | inactive: 0.082 | inactive: -0.119 |  |  | inactive: -0.04 | inactive: 0.017 | inactive: -0.114 | inactive: 0.021 | inactive: -0.098 | inactive: 0.023 | inactive: 0.14 | inactive: -0.07 | inactive: -0.002 | inactive: 0.065 | inactive: 0.035 |
| PCLAF (UniProt Q15004) | inactive: 0 | inactive: -0.026 | inactive: 0.057 | inactive: -0.006 | inactive: -0.059 | inactive: -0.015 | inactive: 0.012 | inactive: 0.037 | inactive: -0.052 | inactive: 0.016 | inactive: 0.025 |  | inactive: 0.035 | inactive: -0.014 | inactive: -0.011 | inactive: 0.003 | inactive: -0.041 | inactive: 0.034 | inactive: -0.005 |  |
| PCCA (UniProt P05165) | inactive: -0.028 | inactive: 0.025 | inactive: 0.003 | inactive: 0.02 | inactive: -0.004 | inactive: -0.059 | inactive: -0.038 | inactive: -0.044 | inactive: 0.014 | inactive: 0.053 | inactive: 0.023 | inactive: 0.019 | inactive: 0 | inactive: -0.067 | inactive: -0.006 | inactive: 0.041 | inactive: 0.067 | inactive: -0.012 | inactive: -0.02 | inactive: 0.035 |
| PDLIM1 (UniProt O00151) | inactive: -0.012 | inactive: -0.02 | inactive: 0.026 | inactive: -0.014 | inactive: 0.001 | inactive: 0.008 | inactive: 0.02 | inactive: -0.001 | inactive: 0.014 | inactive: 0.01 | inactive: -0.005 | inactive: -0.009 | inactive: -0.017 | inactive: -0.004 | inactive: 0.01 | inactive: -0.015 | inactive: -0.007 | inactive: -0.002 | inactive: -0.005 | inactive: -0.024 |
| PCCB (UniProt P05166) | inactive: 0.014 | inactive: 0.053 | inactive: -0.006 | inactive: -0.018 | inactive: 0.005 | inactive: -0.007 | inactive: -0.004 | inactive: -0.015 | inactive: 0.001 | inactive: 0.038 | inactive: -0.014 | inactive: -0.004 | inactive: -0.018 | inactive: -0.017 | inactive: -0.028 | inactive: -0.005 | inactive: 0.023 | inactive: 0.012 | inactive: -0.003 | inactive: -0.012 |

As entered above.
In log2 fold change [12], PDCD11 (UniProt Q14690) has the entry inactive: 0.013
In log2 fold change [12], PDCD6IP (UniProt Q8WUM4) has the entry inactive: 0.009
